Measured values: patent US20060252723A1, “Combined therapy utilizing reduction of DNA methyltransferase expression and/or activity and interferon” (Methylgene, Inc. The Cleveland Clinic Foundation, priority 2005, published 2006)
Some of these results come from one statement about several compounds together.

System: ACHN cells
Experiment: TUNEL flow cytometric analysis of apoptosis
Format: cell-based, human
Experimental: After the indicated time of DNMT1 inhibition cells were plated at 5000 cells/cm^2 for TUNEL assay with IFNs added 16 hr after plating. Four to 5 days after IFN administration cells were harvested and processed according to the manufacturer's instructions for TUNEL flow cytometric analysis (BD Pharmingen, San Diego, Calif.).

How did the TUNEL positive (agent alone, no IFN, 5-AZA-dC 4 days) turn out when “5′-TTAATGTAACCTAAGGTCAA-3′ (listed as DNA, chemistry not given here) [MM, mismatch control oligonucleotide]” was run?
Its TUNEL positive is less than 5%.

How did the “cells apoptotic on TUNEL staining (up to)” value (5-AZA-dC over 24 days or oligonucleotide transfection over 6 to 8 days, then 50 U/ml IFN α or IFN β, 4-5 days after IFN) turn out when Nc1ncn([C@H]2C[C@H](O)[C@@H](CO)O2)c(=O)n1 [5-AZA-dC, 5-aza-deoxycytidine] was run?
The value was 50-80%.
